Assay results from patent publication US20140271634A1, “COMBINATIONS OF A MEK INHIBITOR COMPOUND WITH AN HER3/EGFR INHIBITOR COMPOUND AND METHODS OF USE” (The Regents of the University of California, priority 2013, published 2014).
These are yes or no findings as the source states them, for the method shown. Some binding calls cover weakened binding; strength is not graded here.

Chains of the proteins cited; added tags and fusions are not shown. Residues count along the entry.
UniProt P21860, residues 20-643: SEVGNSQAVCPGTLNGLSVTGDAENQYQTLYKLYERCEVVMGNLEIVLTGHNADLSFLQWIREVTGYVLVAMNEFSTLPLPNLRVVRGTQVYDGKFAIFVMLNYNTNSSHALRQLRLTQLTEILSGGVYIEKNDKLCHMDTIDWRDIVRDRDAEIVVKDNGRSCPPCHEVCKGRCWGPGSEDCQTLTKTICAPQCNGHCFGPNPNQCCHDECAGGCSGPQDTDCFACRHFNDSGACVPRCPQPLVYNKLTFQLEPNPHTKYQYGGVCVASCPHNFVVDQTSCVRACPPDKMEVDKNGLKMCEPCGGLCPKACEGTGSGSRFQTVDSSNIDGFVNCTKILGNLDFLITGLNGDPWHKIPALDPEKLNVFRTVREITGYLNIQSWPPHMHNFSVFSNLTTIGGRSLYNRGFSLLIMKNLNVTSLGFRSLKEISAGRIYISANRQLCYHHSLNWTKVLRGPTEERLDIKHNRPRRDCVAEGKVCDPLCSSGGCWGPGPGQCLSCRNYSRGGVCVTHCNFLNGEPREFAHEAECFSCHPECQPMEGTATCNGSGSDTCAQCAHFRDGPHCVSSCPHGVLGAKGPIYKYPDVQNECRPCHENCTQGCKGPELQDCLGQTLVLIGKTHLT

Key:
EGFR-ECD [1] = target: EGFR-ECD (UniProt P00533); experiment: competitive binding assay; soluble EGFR-ECD as competitor (0.02-20 µg/ml) against immobilized HER3-ECD
HER3-ECD [2] = target: T1, HER3-ECD (Homo sapiens, UniProt P21860); experiment: competitive binding assay; soluble HER3-ECD as competitor (0.02-20 µg/ml) against immobilized EGFR-ECD
HER3-ECD [3] = target: T1, HER3-ECD; experiment: competitive binding assay, figure legend of FIG. 1
EGFR-ECD [4] = target: EGFR-ECD (UniProt P00533); experiment: competitive binding assay, figure legend of FIG. 1

Measured: binding

B1: MEHD7945A (bispecific antibody, V domains shown)
VH: EVQLVESGGGLVQPGGSLRLSCAASGFTLSGDWIHWVRQAPGKGLEWVGEISAAGGYTDYADSVKGRFTISADTSKNTAYLQMNSLRAEDTAVYYCARESRVSFEAAMDYWGQGTLVTVSS
VL: DIQMTQSPSSLSASVGDRVTITCRASQNIATDVAWYQQKPGKAPKLLIYSASFLYSGVPSRFSGSGSGTDFTLTISSLQPEDFATYYCQQSEPEPYTFGQGTKVEIKR
binds: EGFR-ECD [1] | HER3-ECD [2] | HER3-ECD [3] | EGFR-ECD [4]
